Assay results taken from patent US7906486B2, “Method of treating or preventing tissue deterioration, injury or damage due to disease of mucosa” (SciClone Pharmaceuticals, Inc., priority 2007, dated 2011).
“And” between values parts separate entries of the source, which are not always exact repeats. Identical values can stand only once. Further values from the same series stand in other lists.

Assay: Weights and survival (Example 1, SCI-01)
Format: in vivo, Syrian Golden Hamsters
Experimental: All animals were weighed daily and their survival recorded, in order to assess possible differences in animal weight among treatment groups as an indication for mucositis severity and/or possible toxicity resulting from the treatments.
The mean daily percent weight change data was evaluated. The saline (PBS) treated control hamsters gained an average of 70.4% of their starting weight during the study. Hamsters in the group receiving SCV-07 at 1 ug/kg on days −1 to 16 gained an average of 68.4% of their starting weight during the study. Hamsters in the group receiving SCV-07 at 10 ug/kg on days −1 to 16 gained an average of 70.3% of their starting weight during the study. Hamsters in the group receiving SCV-07 at 100 ug/kg on days −1 to 16 gained an average of 82.0% of their starting weight during the study. The significance of these differences was evaluated by calculating the area-under-the-curve (AUC) for the weight gain of each animal, and then comparing the different treatment groups using a One-Way ANOVA test.

N[C@H](CCC(=O)N[C@@H](Cc1c[nH]c2ccccc12)C(=O)O)C(=O)O [SCV-07, γ-D-glutamyl-L-tryptophan]
Animal weight (Group 2, SCV-07 1 ug/kg sc qd, Day 0): 96 and 86 and 80 and 83 and 81
Animal weight (Group 2, SCV-07 1 ug/kg sc qd, Day 1): 98 and 86 and 79 and 83 and 88 and 81 and 78
Animal weight (Group 2, SCV-07 1 ug/kg sc qd, Day 2): 100 and 89 and 84 and 86 and 91 and 83
Animal weight (Group 2, SCV-07 1 ug/kg sc qd, Day 3): 101 and 91 and 88 and 86 and 93 and 84
Animal weight (Group 2, SCV-07 1 ug/kg sc qd, Day 4): 103 and 94 and 90 and 89 and 95 and 96 and 86 and 87
Animal weight (Group 2, SCV-07 1 ug/kg sc qd, Day 5): 109 and 97 and 91 and 94 and 100 and 89
Animal weight (Group 2, SCV-07 1 ug/kg sc qd, Day 6): 111 and 99 and 95 and 98 and 105 and 101 and 94 and 93
Animal weight (Group 2, SCV-07 1 ug/kg sc qd, Day 7): 114 and 99 and 96 and 100 and 103 and 104 and 94
Animal weight (Group 2, SCV-07 1 ug/kg sc qd, Day 8): 116 and 102 and 101 and 103 and 105 and 97 and 98
Animal weight (Group 2, SCV-07 1 ug/kg sc qd, Day 9): 118 and 104 and 101 and 107 and 99 and 100
Animal weight (Group 2, SCV-07 1 ug/kg sc qd, Day 10): 117 and 104 and 100 and 102 and 106 and 98 and 97
Animal weight (Group 2, SCV-07 1 ug/kg sc qd, Day 11): 122 and 109 and 104 and 105 and 111 and 102
Animal weight (Group 2, SCV-07 1 ug/kg sc qd, Day 12): 123 and 110 and 105 and 107 and 114
Animal weight (Group 2, SCV-07 1 ug/kg sc qd, Day 13): 122 and 110 and 104 and 109 and 112 and 111 and 108
Animal weight (Group 2, SCV-07 1 ug/kg sc qd, Day 14): 123 and 110 and 107 and 111 and 116 and 112 and 106
Animal weight (Group 2, SCV-07 1 ug/kg sc qd, Day 15): 123 and 110 and 111 and 117 and 112 and 109 and 106
Animal weight (Group 2, SCV-07 1 ug/kg sc qd, Day 16): 129 and 115 and 112 and 116 and 121 and 113 and 111
Animal weight (Group 2, SCV-07 1 ug/kg sc qd, Day 17): 126 and 114 and 108 and 112 and 117 and 113 and 109
Animal weight (Group 2, SCV-07 1 ug/kg sc qd, Day 18): 133 and 118 and 117 and 119 and 125 and 116 and 115
Animal weight (Group 2, SCV-07 1 ug/kg sc qd, Day 19): 136 and 121 and 118 and 123 and 127 and 120
Animal weight (Group 2, SCV-07 1 ug/kg sc qd, Day 20): 137 and 120 and 118 and 122 and 128 and 119
Animal weight (Group 2, SCV-07 1 ug/kg sc qd, Day 21): 139 and 122 and 121 and 123 and 131 and 120
Animal weight (Group 2, SCV-07 1 ug/kg sc qd, Day 22): 141 and 125 and 123 and 124 and 132 and 121
Animal weight (Group 2, SCV-07 1 ug/kg sc qd, Day 23): 143 and 128 and 124 and 130 and 135 and 126 and 125
Animal weight (Group 2, SCV-07 1 ug/kg sc qd, Day 24): 143 and 129 and 124 and 131 and 133 and 128 and 126 and 125
Animal weight (Group 2, SCV-07 1 ug/kg sc qd, Day 25): 147 and 131 and 129 and 137 and 140 and 130
Animal weight (Group 2, SCV-07 1 ug/kg sc qd, Day 26): 148 and 134 and 131 and 133 and 140 and 130
Animal weight (Group 2, SCV-07 1 ug/kg sc qd, Day 27): 150 and 135 and 134 and 139 and 144 and 133 and 132
Animal weight (Group 2, SCV-07 1 ug/kg sc qd, Day 28): 152 and 138 and 135 and 147 and 136 and 137
Animal weight (Group 2, SCV-07 1 ug/kg sc qd, Day -1): 78 and 94 and 93 and 79 and 82 and 84
Animal weight (Group 3, SCV-07 10 ug/kg sc qd, Day 0): 83 and 90 and 87 and 76 and 93 and 95 and 91
Animal weight (Group 3, SCV-07 10 ug/kg sc qd, Day 1): 84 and 91 and 87 and 76 and 93 and 94 and 96
Animal weight (Group 3, SCV-07 10 ug/kg sc qd, Day 2): 87 and 94 and 90 and 79 and 96 and 98 and 95 and 100
Animal weight (Group 3, SCV-07 10 ug/kg sc qd, Day 3): 89 and 98 and 92 and 82 and 100 and 104
Animal weight (Group 3, SCV-07 10 ug/kg sc qd, Day 4): 92 and 100 and 93 and 84 and 103 and 106
Animal weight (Group 3, SCV-07 10 ug/kg sc qd, Day 5): 96 and 105 and 97 and 89 and 103 and 108 and 113
Animal weight (Group 3, SCV-07 10 ug/kg sc qd, Day 6): 98 and 107 and 90 and 106 and 109 and 101 and 116
Animal weight (Group 3, SCV-07 10 ug/kg sc qd, Day 7): 100 and 108 and 101 and 92 and 112 and 109 and 115
Animal weight (Group 3, SCV-07 10 ug/kg sc qd, Day 8): 102 and 111 and 103 and 96 and 109 and 114 and 113 and 120
Animal weight (Group 3, SCV-07 10 ug/kg sc qd, Day 9): 104 and 112 and 105 and 96 and 111 and 116 and 114 and 122
Animal weight (Group 3, SCV-07 10 ug/kg sc qd, Day 10): 103 and 113 and 104 and 96 and 110 and 115 and 124
Animal weight (Group 3, SCV-07 10 ug/kg sc qd, Day 11): 111 and 117 and 109 and 101 and 113 and 121 and 129
Animal weight (Group 3, SCV-07 10 ug/kg sc qd, Day 12): 112 and 120 and 109 and 101 and 117 and 124 and 121 and 130
Animal weight (Group 3, SCV-07 10 ug/kg sc qd, Day 13): 111 and 118 and 109 and 100 and 113 and 122 and 121 and 130
Animal weight (Group 3, SCV-07 10 ug/kg sc qd, Day 14): 111 and 115 and 103 and 102 and 110 and 122 and 121 and 129
